Where a name gives a salt, the structure may show the parent alone. The list shows a part of the results. Many values rest on one well or one pass, so single values are uncertain.

For this assay, the system named is M238R (matched melanoma line resistant to BRAF inhibitors). Kind of assay: reduction in cell viability relative to untreated/vehicle; higher = more growth inhibition. Particulars: 200 nM; 72 h.
As to `Nc1ccccc1NC(=O)c1ccc(CNc2nccc(-c3cccnc3)n2)cc1` [Mocetinostat], the “reduction in cell viability” value was less than 0%.

`O=C1c2c(O)cc(O)cc2OC(c2ccc(O)c(O)c2)C1O` (centres undefined) [Taxifolin]: the “reduction in cell viability” value was less than 0%.

In the case of `CS(=O)(=O)Oc1ccc2c(NC(N)=O)c(C(=O)c3ccc(Cl)cc3Cl)oc2c1` [Lirimilast], the “reduction in cell viability” value is less than 0%.

As to `CC1CNc2c(cccc2S(=O)(=O)N[C@@H](CCCNC(=N)N)C(=O)N2CC[C@@H](C)C[C@@H]2C(=O)O)C1` (some centres undefined) [Argatroban], the “reduction in cell viability” value is less than 0%.

Regarding `NC(=O)c1ncn([C@@H]2O[C@H](CO)[C@@H](O)[C@H]2O)n1` [Ribavirin], the “reduction in cell viability” value is less than 0%.

In the case of `CC(C)C[C@H](NC(=O)[C@@H](O)[C@H](N)Cc1ccccc1)C(=O)O` [Ubenimex], the “reduction in cell viability” value was less than 0%.

With `O=C(NCc1ccccc1)[C@H](Cc1ccccc1)NC(=O)[C@H]1O[C@@H]1C(=O)NCCc1ccc(O)cc1`, the “reduction in cell viability” value is less than 0%.

As for `Cc1c(C(=O)NN2CCCCC2)nn(-c2ccc(Cl)cc2Cl)c1-c1ccc(Cl)cc1` [Rimonabant], the “reduction in cell viability” value was less than 0%.

With `CC1(C)NC(=O)N(c2ccc([N+](=O)[O-])c(C(F)(F)F)c2)C1=O` [Nilutamide], the “reduction in cell viability” value is less than 0%.

Turning to `Cc1csc(-c2nnc(Nc3ccc(Oc4ncccc4-c4ccnc(N)n4)cc3)c3ccccc23)c1`, the “reduction in cell viability” value is 23.6%.

In the case of `c1cc(-c2sc(-c3ccncc3)c(-c3ccncc3)c2-c2ccncc2)ccn1`, the “reduction in cell viability” value was less than 0%.

Regarding `c1ccc(CNc2nc(NCc3ccccc3)c3ccccc3n2)cc1`, the “reduction in cell viability” value was less than 0%.

With `O=C1NC(=O)/C(=C/c2ccc(-c3ccc(F)cc3O)o2)S1`, the “reduction in cell viability” value is less than 0%.

On to `CC(=O)OCC(=O)[C@@]12N=C(C)O[C@@H]1C[C@H]1[C@@H]3CCC4=CC(=O)C=C[C@]4(C)[C@H]3[C@@H](O)C[C@@]12C` [Deflazacort], for which the “reduction in cell viability” value is less than 0%.

For the compound `CN(N=O)C(=O)N[C@@H](C=O)[C@@H](O)[C@H](O)[C@H](O)CO` [Streptozocin], the “reduction in cell viability” value was less than 0%.

For the compound `C=CC(=O)Nc1cccc(Oc2nc(Nc3ccc(N4CCN(C)CC4)cc3OC)ncc2Cl)c1`, the “reduction in cell viability” value is less than 0%.

`COc1c(C)c2c(c(O)c1C/C=C(\C)CCC(=O)OCCN1CCOCC1)C(=O)OC2` [Mycophenolate mofetil]: the “reduction in cell viability” value is less than 0%.

As for `CN1C(=O)C[C@@H](C(=O)N[C@@H](Cc2c[nH]cn2)C(=O)N2CCC[C@H]2C(N)=O)NC1=O` [Taltirelin], the “reduction in cell viability” value is less than 0%.

For the compound `CCC(C)N(C)C(=O)c1cc2ccccc2c(-c2ccccc2Cl)n1` (centres undefined), the “reduction in cell viability” value is less than 0%.

On to `COc1cccc(-c2ccc(NC(=O)C3=C(C(=O)O)CCC3)c(F)c2)c1` [Vidofludimus], for which the “reduction in cell viability” value is less than 0%.

Regarding `CCOCC(O)COc1ccc(NC(=O)CC[S+](C)C)cc1` (centres undefined) [Suplatast tosilate], the “reduction in cell viability” value is less than 0%.

With `CCN(C(=O)c1c(O)c2c(Cl)cccc2n(C)c1=O)c1ccccc1` [Laquinimod], the “reduction in cell viability” value was less than 0%.

With `CC[C@H]1OC(=O)[C@H](C)[C@@H](O[C@H]2C[C@@](C)(OC)[C@@H](O)[C@H](C)O2)[C@H](C)[C@@H](O[C@@H]2O[C@H](C)C[C@H](N(C)C)[C@H]2O)[C@](C)(O)C[C@@H](C)C(=O)[C@H](C)[C@@H](O)[C@]1(C)O` [Erythromycin], the “reduction in cell viability” value is less than 0%.

For `CN(C)Cc1cccc(N=C(c2ccccc2)c2c(O)[nH]c3cc(C(=O)N(C)C)ccc23)c1`, the “reduction in cell viability” value was less than 0%.

Turning to `COc1ccc(-c2ccc3ncc4c(c3c2)n(-c2ccc(N3CCNCC3)c(C(F)(F)F)c2)c(=O)n4C)cn1`, the “reduction in cell viability” value was 93.2%.

With `COc1c(OCCCN2CCOCC2)ccc2c1N=C(NC(=O)c1cnc(N)nc1)N1CCN=C21`, the “reduction in cell viability” value was less than 0%.

`COc1cc(C(=O)NC2CCN(C)CC2)ccc1Nc1ncc2c(n1)N(C1CCCC1)CCC(=O)N2C(C)C`: the “reduction in cell viability” value was less than 0%.

With `CN1CCC(=C2c3ccccc3C=Cc3ccccc32)CC1` [Cyproheptadine hydrochloride], the “reduction in cell viability” value is less than 0%.

With `CC[C@@]1(O)C(=O)OCc2c1cc1n(c2=O)Cc2cc3cc(O)ccc3nc2-1` [10-hydroxycamptothecin], the “reduction in cell viability” value was determined as 47.7%.

Take `Nc1nc(-c2nn(Cc3ccccc3F)c3ncccc23)nc(N)c1N1CCOCC1`: the “reduction in cell viability” value was less than 0%.

On to `CS(=O)(=O)Nc1ccc([N+](=O)[O-])cc1Oc1ccccc1` [Nimesulide], for which the “reduction in cell viability” value was less than 0%.

Turning to `CC(C)[N+]1(C)[C@@H]2CC[C@H]1C[C@@H](OC(=O)C(CO)c1ccccc1)C2` (some centres undefined) [Ipratropium bromide hydrate], the “reduction in cell viability” value was less than 0%.

For the compound `CCCCCNC(=N)N/N=C/c1c[nH]c2ccc(OC)cc12` [Tegaserod maleate], the “reduction in cell viability” value was less than 0%.

Turning to `COc1ccc2c(c1)c(CC(=O)O)c(C)n2C(=O)c1ccc(Cl)cc1` [Indomethacin], the “reduction in cell viability” value was less than 0%.

Take `C[C@H](NC(=O)c1sccc1OCc1ccc(Cl)cc1)c1ccccc1`: the “reduction in cell viability” value was less than 0%.

Turning to `CN(C)CCN1C(=O)c2cccc3cc(N)cc(c23)C1=O` [Amonafide], the “reduction in cell viability” value is less than 0%.

In the case of `CCCn1c(=O)c2nc(C34CC5CC(CC3C5)C4)[nH]c2n(CCC)c1=O` [Rolofylline], the “reduction in cell viability” value was less than 0%.

With `CNC(C)C1CCC(N)C(OC2C(N)CC(N)C(OC3OCC(C)(O)C(NC)C3O)C2O)O1` (centres undefined) [Gentamycin sulfate], the “reduction in cell viability” value was less than 0%.

In the case of `CCCCCCNC(=O)n1cc(F)c(=O)[nH]c1=O` [Carmofur], the “reduction in cell viability” value is less than 0%.
